From publication doi:10.1101/2022.05.24.493257
Results are given in words; binding and its absence hold for the method and conditions named. In cells and extracts the contact can be indirect. Some binding calls cover weakened binding; strength is not graded here.

The chains behind the UniProt entries cited, without tags or fusion partners. Where a name states a change or a piece, a line headed by the entry shows the natural chain unless it says otherwise. A line that says so, or that is headed by a name, gives the form on record, which may keep a tag or linker.
NRAS-G12V re-expressed in Rasless MEFs (P01111, form named): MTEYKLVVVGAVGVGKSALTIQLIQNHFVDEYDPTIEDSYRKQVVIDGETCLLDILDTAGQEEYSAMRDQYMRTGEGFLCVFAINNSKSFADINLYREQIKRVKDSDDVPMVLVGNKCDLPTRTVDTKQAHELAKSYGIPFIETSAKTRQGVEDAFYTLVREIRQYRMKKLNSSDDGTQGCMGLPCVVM

How the values were obtained:
[1] = target: NRAS-G12V re-expressed in Rasless MEFs (UniProt P01111); test: pull-down
[2] = target: KRAS-G12V re-expressed in Rasless MEFs (UniProt P01116); test: pull-down

For “PKCα in Rasless MEFs (from UniProt P20444 1-672) (enzyme)”, the binding [1] was “no binding” and the binding [2] was “binds”.
